PubChem BioAssay AID1259254 – NCATS | 2017

Assay: 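Genome-wide screen for genes that prevent DNA re-replication in cancer cells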 (primary screen)
Cells: human HCT116 colorectal cancer cells
Reagent: single siRNA against human genes
Time to read-out: 3 days
Detection: 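Imaged Hoechst DNA stain sorts each cell into a cycle phase by DNA amount; per plate, G2 fraction set to 0% for non-targeting and 100% for GMNN siRNA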
Direction: G2 robust z-score and G2 cells, % of GMNN control: higher = more G2 cells, more excess DNA replication
Rule for the call: 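An siRNA counts as active if its G2 robust z-score lies at least 5 MADs above the screen median; here such calls match roughly 38% of GMNN control or more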
The whole screen tested about 59,000 reagents; below is an unselected part. About 1,550 of them (2.6%) were called active. 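G2 share is only a proxy for re-replication; each gene was hit by three separate siRNAs, and active genes were retested.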 Reagents against one gene are numbered here. Further read-outs or replicates are left out here. No sequences are given here. The record does not give: the amount of reagent.

The first 6 entries as a preview:
| gene knocked down | reagent | G2 robust z-score | G2 cells, % of GMNN control | call |
| --- | --- | --- | --- | --- |
| AMOT (angiomotin) | 1 | 0.159 | 4.08 | inactive |
| AMOT (angiomotin) | 2 | 0.914 | 9.4 | inactive |
| AMOT (angiomotin) | 3 | -0.121 | 2.12 | inactive |
| OR4F29 (olfactory receptor family 4 subfamily F member 29) | 1 | -0.235 | 1.31 | inactive |
| OR4F29 (olfactory receptor family 4 subfamily F member 29) | 2 | -0.0161 | 2.85 | inactive |
| OR4F29 (olfactory receptor family 4 subfamily F member 29) | 3 | -0.401 | 0.149 | inactive |

The list itself, repeating the preview:
| gene knocked down | reagent | G2 robust z-score | G2 cells, % of GMNN control | call |
| --- | --- | --- | --- | --- |
| AMOT (angiomotin) | 1 | 0.159 | 4.08 | inactive |
| AMOT (angiomotin) | 2 | 0.914 | 9.4 | inactive |
| AMOT (angiomotin) | 3 | -0.121 | 2.12 | inactive |
| OR4F29 (olfactory receptor family 4 subfamily F member 29) | 1 | -0.235 | 1.31 | inactive |
| OR4F29 (olfactory receptor family 4 subfamily F member 29) | 2 | -0.0161 | 2.85 | inactive |
| OR4F29 (olfactory receptor family 4 subfamily F member 29) | 3 | -0.401 | 0.149 | inactive |
| CENATAC (centrosomal AT-AC splicing factor) | 1 | -0.502 | -0.564 | inactive |
| CENATAC (centrosomal AT-AC splicing factor) | 2 | 0.169 | 4.16 | inactive |
| CENATAC (centrosomal AT-AC splicing factor) | 3 | -0.0922 | 2.32 | inactive |
| LMAN2 (lectin, mannose binding 2) | 1 | -0.592 | -1.2 | inactive |
| LMAN2 (lectin, mannose binding 2) | 2 | 0.299 | 5.07 | inactive |
| LMAN2 (lectin, mannose binding 2) | 3 | -0.15 | 1.91 | inactive |
| MLYCD (malonyl-CoA decarboxylase) | 1 | 0.512 | 6.57 | inactive |
| MLYCD (malonyl-CoA decarboxylase) | 2 | -1.21 | -5.55 | inactive |
| MLYCD (malonyl-CoA decarboxylase) | 3 | -0.934 | -3.61 | inactive |
| RPA3 (replication protein A3) | 1 | 0.0594 | 3.39 | inactive |
| RPA3 (replication protein A3) | 2 | 0.0541 | 3.35 | inactive |
| RPA3 (replication protein A3) | 3 | 0.357 | 5.48 | inactive |
| SHISA8 (shisa family member 8) | 1 | -0.603 | -1.28 | inactive |
| SHISA8 (shisa family member 8) | 2 | 0.758 | 8.3 | inactive |
| SHISA8 (shisa family member 8) | 3 | -0.926 | -3.55 | inactive |
| CECR2 (CECR2 histone acetyl-lysine reader) | 1 | 0.0727 | 3.48 | inactive |
| CECR2 (CECR2 histone acetyl-lysine reader) | 2 | 0.697 | 7.87 | inactive |
| CECR2 (CECR2 histone acetyl-lysine reader) | 3 | 1.16 | 11.1 | inactive |
| PDE1B (phosphodiesterase 1B) | 1 | -1.1 | -4.78 | inactive |
| PDE1B (phosphodiesterase 1B) | 2 | 0.308 | 5.13 | inactive |
| PDE1B (phosphodiesterase 1B) | 3 | -0.276 | 1.02 | inactive |
| NAALADL1 (N-acetylated alpha-linked acidic dipeptidase like 1) | 1 | 0.141 | 3.96 | inactive |
| NAALADL1 (N-acetylated alpha-linked acidic dipeptidase like 1) | 2 | 2.19 | 18.3 | inactive |
| NAALADL1 (N-acetylated alpha-linked acidic dipeptidase like 1) | 3 | -0.349 | 0.512 | inactive |
| G3BP2 (G3BP stress granule assembly factor 2) | 1 | -0.738 | -2.22 | inactive |
| G3BP2 (G3BP stress granule assembly factor 2) | 2 | -0.396 | 0.18 | inactive |
| G3BP2 (G3BP stress granule assembly factor 2) | 3 | -0.737 | -2.22 | inactive |
| VPS4B (vacuolar protein sorting 4 homolog B) | 1 | 0.274 | 4.9 | inactive |
| VPS4B (vacuolar protein sorting 4 homolog B) | 2 | 4.46 | 34.3 | inactive |
| VPS4B (vacuolar protein sorting 4 homolog B) | 3 | -1.15 | -5.12 | inactive |
| GSS (glutathione synthetase) | 1 | 0.0159 | 3.08 | inactive |
| GSS (glutathione synthetase) | 2 | 3.08 | 24.6 | inactive |
| GSS (glutathione synthetase) | 3 | 0.597 | 7.17 | inactive |
| SOCS7 (suppressor of cytokine signaling 7) | 1 | 0.0202 | 3.11 | inactive |
| SOCS7 (suppressor of cytokine signaling 7) | 2 | -0.567 | -1.02 | inactive |
| SOCS7 (suppressor of cytokine signaling 7) | 3 | 1.37 | 12.6 | inactive |
| NWD1 (NACHT and WD repeat domain containing 1) | 1 | 1.63 | 14.5 | inactive |
| NWD1 (NACHT and WD repeat domain containing 1) | 2 | 1.79 | 15.6 | inactive |
| NWD1 (NACHT and WD repeat domain containing 1) | 3 | -0.761 | -2.38 | inactive |
| GLO1 (glyoxalase I) | 1 | -0.341 | 0.567 | inactive |
| GLO1 (glyoxalase I) | 2 | -0.485 | -0.447 | inactive |
| GLO1 (glyoxalase I) | 3 | 0.854 | 8.98 | inactive |
